For some assays here: Expression values are those of the mRNA of the gene that encodes the peptide; a gene is named only where it was looked up.
How the values were obtained:
[1] = system: HLA molecules of primary tumor and normal tissue samples; assay: Identification and quantitation of tumor associated peptides presented on the cell surface (HLA immunoprecipitation, label-free LC-MS); parameters: species or system human; settings: cancer entities on which the peptide was found presented (HLA immunoprecipitation, LC-MS); abbreviations in table footnotes
[2] = system: source genes (mRNA) in tumor and normal tissues; assay: Expression profiling of genes encoding the peptides (RNAseq); parameters: species or system human; settings: for Gene Expression in tumor samples: over-expressed (+): tumor types in which the peptide's source gene is over-expressed compared to a panel of normal tissues (RNAseq); for Gene Expression in tumor samples: highly over-expressed (++): tumor types in which the peptide's source gene is highly over-expressed compared to a panel of normal tissues (RNAseq)

Substance	Peptide Presentation on cancer entities [1]	Gene Expression in tumor samples: over-expressed (+) [2]	Gene Expression in tumor samples: very highly over-expressed (+++) ([2]; tumor types in which the peptide's source gene is very highly over-expressed compared to a panel of normal tissues (RNAseq))	Gene Expression in tumor samples: highly over-expressed (++) [2]
327: peptide found in ROS1 (gene looked up) (SEQHSLPVF; listed as Homo sapiens) [compound 327]	NSCLCsquam	NSCLCadeno, NSCLCother, NSCLCsquam		
328: peptide found in ROS1 (gene looked up) (HENGVLTKF; listed as Homo sapiens) [compound 328]	NSCLCadeno, NSCLCsquam	NSCLCadeno, NSCLCother, NSCLCsquam		
335: peptide found in ABCC4 (gene looked up) (SETPTLQGL; listed as Homo sapiens) [compound 335]	HCC	PRCA		
338: peptide found in HTR3A (gene looked up) (AEMKFYVVI; listed as Homo sapiens) [compound 338]	NHL, OC	NHL, OC		
340: peptide found in ABCC4 (gene looked up) (GELAPSHGL; listed as Homo sapiens) [compound 340]	PRCA	PRCA		
348: peptide found in MET (gene looked up) (SEVLLTSISTF; listed as Homo sapiens) [compound 348]	NSCLCadeno	CCC, GBC, NSCLCadeno, RCC		
349: peptide found in MPL (gene looked up) (LEWQHPSSW; listed as Homo sapiens) [compound 349]	AML	AML		
350: peptide found in APOB (gene looked up) (EEMLENVSL; listed as Homo sapiens) [compound 350]	CCC, HCC	HCC		
367: peptide found in MET (gene looked up) (TEFAVKLKI; listed as Homo sapiens) [compound 367]	NSCLCadeno	CCC, GBC, RCC		
371: peptide found in TLR3 (gene looked up) (NEIGQELTGQEW; listed as Homo sapiens) [compound 371]	BRCA, CCC, CRC, GBM, HCC, HNSCC, MEL, NSCLCadeno, NSCLCsquam, OC, OSCAR, PACA, PRCA, RCC	RCC		
373: peptide found in MET (gene looked up) (REDPIVYEI; listed as Homo sapiens) [compound 373]	MEL, NSCLCadeno, UBC	CCC, GBC, RCC		
393: peptide found in NUP155 (gene looked up) (SETILAVGL; listed as Homo sapiens) [compound 393]	BRCA, CLL, HCC, NSCLCsquam	NSCLCother, SCLC		
395: peptide found in GSAP (gene looked up) (AEDFVWAQW; listed as Homo sapiens) [compound 395]	CLL, CRC, HCC, NHL, NSCLCsquam	CLL		
398: peptide found in HPGDS (gene looked up) (AEIIRYIF; listed as Homo sapiens) [compound 398]	AML	AML		
399: peptide found in HPGDS (gene looked up) (IEQADWPEI; listed as Homo sapiens) [compound 399]	NSCLCadeno	AML		
403: peptide found in PLD4 (gene looked up) (QESVHVASY; listed as Homo sapiens) [compound 403]	AML, BRCA, CLL, GBM, NHL, PACA, UEC	AML		
419: peptide found in ACP3 (gene looked up) (SELSLLSLY; listed as Homo sapiens) [compound 419]	PRCA		PRCA	
432: peptide found in NAT1 (gene looked up) (TEENGFWYL; listed as Homo sapiens) [compound 432]	BRCA			BRCA
446: peptide found in FOLH1 (gene looked up) (AENIKKFLY; listed as Homo sapiens) [compound 446]	CRC, HCC, MEL, NSCLCsquam, PRCA, RCC			PRCA
447: peptide found in FOLH1 (gene looked up) (KEFGLDSVEL; listed as Homo sapiens) [compound 447]	CCC, HCC			PRCA
455: peptide found in PLD4 (gene looked up) (QESVHVASYYW; listed as Homo sapiens) [compound 455]	CLL, UBC, UEC	AML		
456: peptide found in NRG1 (gene looked up) (SESPIRISV; listed as Homo sapiens) [compound 456]	NSCLCsquam, OSCAR, PACA	HNSCC		

From patent US12065471B2, “B*44 restricted peptides for use in immunotherapy against cancers and related methods” (Immatics Biotechnologies GmbH, priority 2018, dated 2024)
